These results are taken from paper PMC10351173.

The exact form of at least one protein or probe is not confirmed. No signal at the amounts used counts as a negative.

The subject of this data set is PnWRKY15 (Panax notoginseng). In words: EMSA. The settings on record: LightShift Chemiluminescent EMSA kit (Pierce), pH and temperature not stated, recombinant protein, protein details: His (pET32a fusion). Background: A gel shift assay detects complexes by their altered migration in electrophoresis.

“TACCGTGAAGAAATATATTTTTCTTTTACCCGACTATGGTGAGGGATGAA (double strand) [PPnOLP1 mutant W-box probe]”: the binding result (label: biotin) was “no binding”.

As for “TACCGTGAAGAAATATATTTTTCTTTTGACCGACTATGGTGAGGGATGAA (double strand) [PPnOLP1 W-box probe]”, for the setting “label: biotin (unlabeled as competitor)”, the binding result is on record as “binds”.
